# Drug screen on melanoma cell lines: cell count

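Human melanoma cell lines in 1,536-well plates were treated with two drugs together for 72 h, then fixed, stained and imaged. Values are the number of DAPI-stained nuclei as a percentage of the DMSO control: 100 is no effect, lower means fewer cells. Concentrations were fixed for each drug; these are the higher of two levels. No replicate spread is given; individual values may be noisy.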 An unselected part of the screen is shown. An entry leaves out what has no value listed here.

Compounds and concentrations:
U73122, 2 µM: COc1ccc2c(c1)CCC1C2CCC2(C)C(NCCCCCCN3C(=O)C=CC3=O)CCC12 (stereo not shown)
BI-78D3, 1 µM: O=c1[nH]nc(Sc2ncc([N+](=O)[O-])s2)n1-c1ccc2c(c1)OCCO2
tamatinib, 2 µM: COc1cc(Nc2ncc(F)c(Nc3ccc4c(n3)NC(=O)C(C)(C)O4)n2)cc(OC)c1OC
OSI-906, 2 µM: C[C@]1(O)C[C@@H](c2nc(-c3ccc4ccc(-c5ccccc5)nc4c3)c3c(N)nccn32)C1
dasatinib, 0.02 µM: Cc1nc(Nc2ncc(C(=O)Nc3c(C)cccc3Cl)s2)cc(N2CCN(CCO)CC2)n1
KU-55933, 5 µM: O=c1cc(-c2cccc3c2Sc2ccccc2S3)oc(N2CCOCC2)c1
AZD7762, 0.1 µM: NC(=O)Nc1cc(-c2cccc(F)c2)sc1C(=O)N[C@H]1CCCNC1
pioglitazone, 10 µM: CCc1ccc(CCOc2ccc(CC3SC(=O)NC3=O)cc2)nc1 (stereo not shown)
TCS401, 8.33 µM: O=C(O)C(=O)Nc1sc2c(c1C(=O)O)CCNC2
VX-702, 2 µM: NC(=O)c1ccc(N(C(N)=O)c2c(F)cccc2F)nc1-c1ccc(F)cc1F
PD173074, 0.5 µM: CCN(CC)CCCCNc1ncc2cc(-c3cc(OC)cc(OC)c3)c(NC(=O)NC(C)(C)C)nc2n1
nilotinib, 1 µM: Cc1cn(-c2cc(NC(=O)c3ccc(C)c(Nc4nccc(-c5cccnc5)n4)c3)cc(C(F)(F)F)c2)cn1

For VX-702 + AZD7762 the values were COLO 792: 51.6; COLO 829: 78.4. U73122 + OSI-906 gave COLO 792: 97.4; COLO 829: 109. For pioglitazone + PD173074 the values were COLO 792: 87.2; COLO 829: 121.

With BI-78D3 + pioglitazone the screen read COLO 792: 106; COLO 829: 88.2. For pioglitazone + VX-702 the values were COLO 792: 95.3; COLO 829: 98.6. For tamatinib + KU-55933 the values were COLO 792: 57.3; COLO 829: 91.4.

With AZD7762 + OSI-906 the screen read COLO 792: 45.4; COLO 829: 87.6. With BI-78D3 + U73122 the screen read COLO 792: 100; COLO 829: 88.0. pioglitazone + OSI-906 gave COLO 792: 101; COLO 829: 80.3.

Results for nilotinib + U73122 are COLO 792: 94.4; COLO 829: 114. Results for TCS401 + pioglitazone are COLO 792: 72.5; COLO 829: 96.4. KU-55933 + BI-78D3 gave COLO 792: 115; COLO 829: 89.7.

With OSI-906 + nilotinib the screen read COLO 792: 68.5; COLO 829: 89.7. For nilotinib + TCS401 the values were COLO 792: 119. pioglitazone + dasatinib gave COLO 792: 64.3; COLO 829: 69.4.

For tamatinib + U73122 the values were COLO 792: 56.8; COLO 829: 86.1. AZD7762 + TCS401 gave COLO 792: 51.4; COLO 829: 68.3. With VX-702 + TCS401 the screen read COLO 792: 94.8; COLO 829: 82.9.

Results for PD173074 + BI-78D3 are COLO 792: 126; COLO 829: 117. With PD173074 + AZD7762 the screen read COLO 792: 43.3; COLO 829: 90.4. Results for dasatinib + KU-55933 are COLO 792: 51.3; COLO 829: 57.6.

For OSI-906 + TCS401 the values were COLO 792: 93.0; COLO 829: 96.8. Results for OSI-906 + tamatinib are COLO 792: 15.5; COLO 829: 82.0. Results for VX-702 + tamatinib are COLO 792: 45.4; COLO 829: 73.5.

pioglitazone + KU-55933 gave COLO 792: 106; COLO 829: 106. With KU-55933 + OSI-906 the screen read COLO 792: 78.0; COLO 829: 82.6. With TCS401 + dasatinib the screen read COLO 792: 46.2; COLO 829: 57.2.

With TCS401 + BI-78D3 the screen read COLO 792: 105; COLO 829: 65.3.

Data from the primary screen of doi:10.1371/journal.pone.0140310, rounded.